Assay results: patent publication US20260167685A1 (NANJING ANJI BIOTECHNOLOGY CO., LTD, priority 2023, published 2026)

Test: general procedure: Fmoc solid-phase peptide synthesis; Fmoc-Thr-wang-resin
Conditions: whole synthesis, 220 nm, scale 1 mmol

B1: micropeptide HMBJ (peptide, listed as Homo sapiens)
chain: MEAKLRVLVPAETGISETHDEHETFSLSLGSHSATQMNGVTFPHVTLLSLLLRAGPLHNLFKCSQLSLAPT
- final HPLC purity: 95.86%
